Laboratory results: PubChem BioAssay AID1159578 (Peter MacCallum Cancer Centre, 2015)
In all, the deposit lists about 18,000 reagents; shown is an unselected part. Over the whole deposit, about 1,030 (5.7%) were called active. 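Inactive calls also include pools with fewer than 3300 nuclei, whose migration was not assessed.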 Raw values vary from plate to plate and are shown uncorrected. Further read-outs or replicates are left out here. Reagent sequences are not shown.

Purpose: 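Knock-downs that alter how fast lymphatic endothelial cells migrate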 (primary screen)
Cells: human lymphatic endothelial cells
Reagents: siRNA pool against human genes, 40 nM
Time to read-out: 48 h after transfection
Detection: 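High-content imaging of dye-stained cells in a scratch assay measures filled wound area and nuclei per well; duplicate means given as ratio to mock and robust z-score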
Reading the numbers: migration robust z-score: higher = faster migration into the scratch; nuclei per well: higher = more cells in the well
Rule for the call: 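Pools averaging fewer than 3300 nuclei are never called; remaining pools count as changed when migration robust z lies outside -2 to 2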
Calls: active = migration changed; inactive = no migration change, or too few cells

target	PubChem SID	migration robust z-score	migration class with cell-count check	nuclei per well, duplicate mean	call
TOGARAM1	SID255356001	1.44	migration z between -2 and 2; enough cells	6132	inactive
KPRP	SID255365989	-1.07	migration z between -2 and 2; enough cells	5898	inactive
CEMIP2	SID255356399	0.79	migration z between -2 and 2; enough cells	6656	inactive
OOSP2	SID255364230	-0.99	migration z between -2 and 2; enough cells	4742	inactive
LEMD2	SID255364306	-0.08	migration z between -2 and 2; enough cells	6317	inactive
PSMD2	SID255351901	-0.26	migration z between -2 and 2; enough cells	4388	inactive
TMEM59L	SID255356459	-3.06	under 3300 nuclei; migration not judged	2207	inactive
C5	SID255348613	0.1	migration z between -2 and 2; enough cells	5690	inactive
MAT2A	SID255350881	-0.83	migration z between -2 and 2; enough cells	4237	inactive
LIAT1	SID255365746	1.71	migration z between -2 and 2; enough cells	5234	inactive
COMMD4	SID255358287	0.5	migration z between -2 and 2; enough cells	7267	inactive
SLC13A3	SID255360027	0.64	migration z between -2 and 2; enough cells	7016	inactive
FAM43B	SID255363801	-0.24	migration z between -2 and 2; enough cells	4850	inactive
ESRP1	SID255358207	0.69	migration z between -2 and 2; enough cells	6742	inactive
CBS	SID255348725	0.76	migration z between -2 and 2; enough cells	5890	inactive
SLC45A2	SID255357520	0.94	migration z between -2 and 2; enough cells	6286	inactive
CEP72	SID255358806	-0.86	migration z between -2 and 2; enough cells	4842	inactive
CAMSAP3	SID255359536	0.21	migration z between -2 and 2; enough cells	6148	inactive
INTS2	SID255359429	-1.3	migration z between -2 and 2; enough cells	5351	inactive
VN1R4	SID255364936	-0.42	migration z between -2 and 2; enough cells	6812	inactive
SIAH3	SID255364683	0.07	migration z between -2 and 2; enough cells	5232	inactive
RPL19P9	SID255366140	-1.68	migration z between -2 and 2; enough cells	4066	inactive
RGMB	SID255364876	0.77	migration z between -2 and 2; enough cells	6140	inactive
CDKN2C	SID255348850	-0.6	migration z between -2 and 2; enough cells	5223	inactive
IKZF2	SID255355788	0.94	migration z between -2 and 2; enough cells	5523	inactive
SIPA1	SID255352427	-0.18	migration z between -2 and 2; enough cells	4978	inactive
ITPRIPL1	SID255363471	0.41	migration z between -2 and 2; enough cells	6332	inactive
SPINT1	SID255352597	-0.18	migration z between -2 and 2; enough cells	5128	inactive

Copied from the list:
Result of INTS2 [SID255359429] in “call”: inactive
For “nuclei per well, duplicate mean”, COMMD4 [SID255358287] is entered as 7267
SLC45A2 [SID255357520], call: inactive
For “nuclei per well, duplicate mean”, C5 [SID255348613] is entered as 5690
TMEM59L [SID255356459], migration robust z-score = -3.06
SPINT1 [SID255352597], call → inactive

Further entries follow.
target	PubChem SID	migration robust z-score	migration class with cell-count check	nuclei per well, duplicate mean	call
ARL16	SID255365025	-1.17	migration z between -2 and 2; enough cells	6140	inactive
ZNF260	SID255365028	-0.4	migration z between -2 and 2; enough cells	4966	inactive
HOXC9	SID255350282	0.9	migration z between -2 and 2; enough cells	5105	inactive
LORICRIN	SID255350784	-0.66	migration z between -2 and 2; enough cells	6052	inactive
TMEM128	SID255361638	0.54	migration z between -2 and 2; enough cells	5728	inactive
DZIP3	SID255354454	0.1	migration z between -2 and 2; enough cells	5066	inactive
ACSS2	SID255358945	1.72	migration z between -2 and 2; enough cells	6794	inactive
TRIM51BP	SID255365728	-0.26	migration z between -2 and 2; enough cells	4055	inactive
COG2	SID255355780	0.36	migration z between -2 and 2; enough cells	6471	inactive
PCDHGA9	SID255358999	-0.74	migration z between -2 and 2; enough cells	4806	inactive
TSPOAP1	SID255354150	-0.32	migration z between -2 and 2; enough cells	6379	inactive
RSPH3	SID255361105	-0.75	migration z between -2 and 2; enough cells	6302	inactive
ZNF610	SID255363760	-1.53	migration z between -2 and 2; enough cells	5336	inactive
TRMT11	SID255359713	0.96	migration z between -2 and 2; enough cells	5814	inactive
SIGLEC8	SID255356966	-0.57	migration z between -2 and 2; enough cells	7098	inactive
FGR	SID255349687	-1.82	migration z between -2 and 2; enough cells	3552	inactive
TMPRSS3	SID255359960	-0.68	migration z between -2 and 2; enough cells	5654	inactive
ARPIN	SID255365241	-3.07	under 3300 nuclei; migration not judged	1708	inactive
CPQ	SID255355052	-0.93	migration z between -2 and 2; enough cells	4928	inactive
SCN2B	SID255352302	-0.73	migration z between -2 and 2; enough cells	4158	inactive
ZNF507	SID255355813	-0.34	migration z between -2 and 2; enough cells	6437	inactive
APBB1IP	SID255358059	-0.23	migration z between -2 and 2; enough cells	5800	inactive
PLEKHM3	SID255365536	0.1	migration z between -2 and 2; enough cells	5649	inactive
CDK2AP2	SID255354947	0.89	migration z between -2 and 2; enough cells	4834	inactive
RGS14	SID255355246	0.02	migration z between -2 and 2; enough cells	5708	inactive
OCRL	SID255351339	0.44	migration z between -2 and 2; enough cells	5426	inactive
G0S2	SID255357325	-0.23	migration z between -2 and 2; enough cells	5422	inactive
LY6G6C	SID255360795	0.8	migration z between -2 and 2; enough cells	5074	inactive
TMEM232	SID255366075	1.54	migration z between -2 and 2; enough cells	6084	inactive
BIN3	SID255358951	0.46	migration z between -2 and 2; enough cells	7402	inactive
LAG3	SID255350712	0.68	migration z between -2 and 2; enough cells	5562	inactive
OR1N2	SID255363059	0.6	migration z between -2 and 2; enough cells	5255	inactive
GALNT1	SID255349820	-0.18	migration z between -2 and 2; enough cells	5420	inactive
MGAT5B	SID255363288	0.39	migration z between -2 and 2; enough cells	5273	inactive
NANS	SID255357980	-1.6	migration z between -2 and 2; enough cells	5204	inactive
DENND1B	SID255358064	1.03	migration z between -2 and 2; enough cells	4186	inactive
DENND1B	SID255363789	2.12	migration z above 2; enough cells	5616	active
GPATCH11	SID255364425	-2.01	migration z below -2; enough cells	6544	active
GCN1	SID255355501	-0.08	migration z between -2 and 2; enough cells	5928	inactive
TULP3	SID255353007	-0.1	migration z between -2 and 2; enough cells	5525	inactive
ARHGAP9	SID255359900	-0.82	migration z between -2 and 2; enough cells	6010	inactive
TIA1	SID255352866	0.74	migration z between -2 and 2; enough cells	6046	inactive
BCL2L14	SID255360281	-0.33	migration z between -2 and 2; enough cells	5386	inactive
KIR3DL2	SID255350649	0.6	migration z between -2 and 2; enough cells	6612	inactive
ASPA	SID255348427	-0.2	migration z between -2 and 2; enough cells	6914	inactive
